No constants are given. Whether binding was seen depends on the method and setting. Some results given as binding are weak or reduced against the parent protein; the word gives no strength.
Target: RipAS (R. solanacearum UW551), yeast two-hybrid fusion (Ralstonia solanacearum UW551)
Assay: two-hybrid

By UniProt entry, the sequences of proteins in these tests, tags left out.
UniProt P30366: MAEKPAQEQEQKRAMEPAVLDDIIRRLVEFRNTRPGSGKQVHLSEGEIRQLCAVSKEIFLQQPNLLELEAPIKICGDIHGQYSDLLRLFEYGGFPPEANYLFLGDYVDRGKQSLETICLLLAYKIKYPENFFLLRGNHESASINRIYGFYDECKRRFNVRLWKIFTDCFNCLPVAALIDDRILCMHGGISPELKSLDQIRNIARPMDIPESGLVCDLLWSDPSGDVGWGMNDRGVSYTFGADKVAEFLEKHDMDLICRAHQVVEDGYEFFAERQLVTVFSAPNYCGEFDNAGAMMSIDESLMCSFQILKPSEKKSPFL

With “TOPP1 (AT2G29400) of Arabidopsis, yeast two-hybrid fusion (from UniProt P30366 1-318) (enzyme)” the binding was “binds”.
